Data as given in the supplement of paper PMC6411743.
± gives the standard deviation of the averaged measurements. The entries are a selection whose mix differs from that of the whole data set. Most entries show no effect beyond the scatter of the controls.

Protein sequences, listed by entry. Tags and fused reporters are not part of them. Lines headed by an entry give the natural chain unless they say otherwise; changes in a name come on top.
UniProt P49770: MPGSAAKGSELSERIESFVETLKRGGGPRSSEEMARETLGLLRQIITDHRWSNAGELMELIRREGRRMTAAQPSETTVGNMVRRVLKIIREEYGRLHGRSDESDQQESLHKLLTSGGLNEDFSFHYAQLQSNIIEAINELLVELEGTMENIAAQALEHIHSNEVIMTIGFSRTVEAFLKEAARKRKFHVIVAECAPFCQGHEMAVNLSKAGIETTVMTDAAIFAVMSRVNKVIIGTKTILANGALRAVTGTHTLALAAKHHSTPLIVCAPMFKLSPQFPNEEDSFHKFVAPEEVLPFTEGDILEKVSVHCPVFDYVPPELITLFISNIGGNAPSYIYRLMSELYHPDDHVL
UniProt P41229: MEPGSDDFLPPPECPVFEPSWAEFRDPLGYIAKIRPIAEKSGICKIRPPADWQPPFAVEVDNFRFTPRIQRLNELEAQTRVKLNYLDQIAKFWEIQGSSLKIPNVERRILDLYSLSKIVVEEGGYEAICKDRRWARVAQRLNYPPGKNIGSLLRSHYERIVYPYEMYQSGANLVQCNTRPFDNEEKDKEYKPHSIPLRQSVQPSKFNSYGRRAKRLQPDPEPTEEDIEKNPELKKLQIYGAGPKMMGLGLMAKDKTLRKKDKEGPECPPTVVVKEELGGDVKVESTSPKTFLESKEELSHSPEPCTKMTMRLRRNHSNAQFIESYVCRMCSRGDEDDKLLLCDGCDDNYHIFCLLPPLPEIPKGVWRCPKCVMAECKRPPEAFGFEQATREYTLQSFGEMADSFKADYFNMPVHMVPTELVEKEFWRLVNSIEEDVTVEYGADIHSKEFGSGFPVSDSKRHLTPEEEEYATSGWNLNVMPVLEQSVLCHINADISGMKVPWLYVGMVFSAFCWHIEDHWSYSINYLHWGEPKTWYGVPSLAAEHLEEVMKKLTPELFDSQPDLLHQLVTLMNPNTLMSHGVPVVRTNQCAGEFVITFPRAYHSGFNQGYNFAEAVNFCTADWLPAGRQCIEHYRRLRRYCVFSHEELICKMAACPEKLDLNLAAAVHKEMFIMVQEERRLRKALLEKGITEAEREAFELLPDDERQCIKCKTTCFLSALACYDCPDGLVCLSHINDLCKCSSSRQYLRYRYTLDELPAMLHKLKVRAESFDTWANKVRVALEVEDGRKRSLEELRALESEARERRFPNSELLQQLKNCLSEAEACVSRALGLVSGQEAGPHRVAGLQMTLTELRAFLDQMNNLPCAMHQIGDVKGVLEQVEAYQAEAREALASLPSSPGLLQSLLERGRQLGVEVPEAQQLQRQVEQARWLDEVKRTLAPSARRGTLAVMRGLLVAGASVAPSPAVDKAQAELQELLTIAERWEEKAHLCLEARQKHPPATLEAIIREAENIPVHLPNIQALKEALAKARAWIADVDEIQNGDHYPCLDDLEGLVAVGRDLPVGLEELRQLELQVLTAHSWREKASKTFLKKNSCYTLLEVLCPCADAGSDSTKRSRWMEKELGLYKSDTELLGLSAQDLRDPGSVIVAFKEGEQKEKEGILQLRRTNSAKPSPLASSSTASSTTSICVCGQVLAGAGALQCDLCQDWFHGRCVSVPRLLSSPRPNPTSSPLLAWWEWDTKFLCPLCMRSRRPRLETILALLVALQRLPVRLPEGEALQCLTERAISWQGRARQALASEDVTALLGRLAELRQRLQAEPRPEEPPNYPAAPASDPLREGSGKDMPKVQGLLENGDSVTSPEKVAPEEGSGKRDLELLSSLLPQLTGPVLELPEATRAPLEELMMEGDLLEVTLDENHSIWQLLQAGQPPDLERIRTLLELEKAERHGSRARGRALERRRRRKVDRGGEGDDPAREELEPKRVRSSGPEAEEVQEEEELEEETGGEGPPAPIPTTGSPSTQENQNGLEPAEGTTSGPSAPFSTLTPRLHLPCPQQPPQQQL
UniProt P49959: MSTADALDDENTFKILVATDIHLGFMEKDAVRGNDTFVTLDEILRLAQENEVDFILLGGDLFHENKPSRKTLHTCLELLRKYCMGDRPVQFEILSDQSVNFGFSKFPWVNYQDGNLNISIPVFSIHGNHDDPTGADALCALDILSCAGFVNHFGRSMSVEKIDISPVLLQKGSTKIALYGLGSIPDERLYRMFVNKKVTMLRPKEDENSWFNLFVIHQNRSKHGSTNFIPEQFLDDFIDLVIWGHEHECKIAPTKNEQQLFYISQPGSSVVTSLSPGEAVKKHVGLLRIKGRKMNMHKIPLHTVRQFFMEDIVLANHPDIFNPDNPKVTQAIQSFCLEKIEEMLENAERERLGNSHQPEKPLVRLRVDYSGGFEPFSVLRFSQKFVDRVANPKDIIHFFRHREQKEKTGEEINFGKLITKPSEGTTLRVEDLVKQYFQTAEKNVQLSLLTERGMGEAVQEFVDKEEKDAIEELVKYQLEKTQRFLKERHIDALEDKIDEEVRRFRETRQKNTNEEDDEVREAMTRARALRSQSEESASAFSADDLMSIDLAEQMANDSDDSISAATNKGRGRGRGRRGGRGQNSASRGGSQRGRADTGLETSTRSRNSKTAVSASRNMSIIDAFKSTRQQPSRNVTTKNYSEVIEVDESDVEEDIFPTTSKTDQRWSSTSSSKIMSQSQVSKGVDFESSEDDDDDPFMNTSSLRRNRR
UniProt P42785: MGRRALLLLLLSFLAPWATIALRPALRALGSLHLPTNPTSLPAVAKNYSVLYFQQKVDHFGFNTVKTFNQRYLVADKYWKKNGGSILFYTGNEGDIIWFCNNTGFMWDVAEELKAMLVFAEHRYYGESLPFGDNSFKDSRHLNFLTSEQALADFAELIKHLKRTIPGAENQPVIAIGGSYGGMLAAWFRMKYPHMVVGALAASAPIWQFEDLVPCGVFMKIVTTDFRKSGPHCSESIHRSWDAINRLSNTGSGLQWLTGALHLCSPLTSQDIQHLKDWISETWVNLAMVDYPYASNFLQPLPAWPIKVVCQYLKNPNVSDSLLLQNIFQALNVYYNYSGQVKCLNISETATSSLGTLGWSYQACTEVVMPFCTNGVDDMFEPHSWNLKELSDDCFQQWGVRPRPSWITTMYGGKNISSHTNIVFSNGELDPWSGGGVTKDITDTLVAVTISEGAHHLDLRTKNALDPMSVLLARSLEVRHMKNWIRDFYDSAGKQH
UniProt P50579: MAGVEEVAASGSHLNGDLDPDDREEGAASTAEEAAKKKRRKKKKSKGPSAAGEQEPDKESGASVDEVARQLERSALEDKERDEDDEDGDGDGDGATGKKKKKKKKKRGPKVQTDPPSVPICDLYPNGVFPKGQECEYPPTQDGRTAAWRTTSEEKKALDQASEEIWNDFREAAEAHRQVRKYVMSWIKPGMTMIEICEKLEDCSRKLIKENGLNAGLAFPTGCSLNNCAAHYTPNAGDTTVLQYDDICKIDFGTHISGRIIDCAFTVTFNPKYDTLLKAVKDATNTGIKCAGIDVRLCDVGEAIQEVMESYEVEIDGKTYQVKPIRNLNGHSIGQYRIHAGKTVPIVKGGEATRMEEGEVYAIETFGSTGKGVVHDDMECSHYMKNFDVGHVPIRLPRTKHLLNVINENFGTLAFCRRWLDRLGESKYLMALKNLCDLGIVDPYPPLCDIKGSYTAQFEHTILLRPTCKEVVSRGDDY
UniProt P48380: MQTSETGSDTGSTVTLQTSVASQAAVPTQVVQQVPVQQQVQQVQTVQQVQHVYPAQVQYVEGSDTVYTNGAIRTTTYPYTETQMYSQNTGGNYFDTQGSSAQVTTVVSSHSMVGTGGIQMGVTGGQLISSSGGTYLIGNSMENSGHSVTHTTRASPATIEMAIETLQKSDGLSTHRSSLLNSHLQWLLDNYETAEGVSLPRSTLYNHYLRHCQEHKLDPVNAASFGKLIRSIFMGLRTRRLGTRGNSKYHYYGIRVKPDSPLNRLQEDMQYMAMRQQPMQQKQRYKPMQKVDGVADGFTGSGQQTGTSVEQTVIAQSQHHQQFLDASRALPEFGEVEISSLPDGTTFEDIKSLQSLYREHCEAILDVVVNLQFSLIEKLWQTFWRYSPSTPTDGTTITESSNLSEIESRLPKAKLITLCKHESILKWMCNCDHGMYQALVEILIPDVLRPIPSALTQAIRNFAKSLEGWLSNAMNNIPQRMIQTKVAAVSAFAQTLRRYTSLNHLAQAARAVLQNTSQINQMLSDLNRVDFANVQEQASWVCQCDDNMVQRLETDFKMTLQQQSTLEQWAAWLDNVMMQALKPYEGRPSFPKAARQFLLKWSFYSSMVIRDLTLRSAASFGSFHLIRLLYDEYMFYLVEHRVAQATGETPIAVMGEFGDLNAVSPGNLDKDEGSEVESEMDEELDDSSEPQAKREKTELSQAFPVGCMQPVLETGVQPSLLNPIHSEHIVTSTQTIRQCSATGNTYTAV
UniProt P51580: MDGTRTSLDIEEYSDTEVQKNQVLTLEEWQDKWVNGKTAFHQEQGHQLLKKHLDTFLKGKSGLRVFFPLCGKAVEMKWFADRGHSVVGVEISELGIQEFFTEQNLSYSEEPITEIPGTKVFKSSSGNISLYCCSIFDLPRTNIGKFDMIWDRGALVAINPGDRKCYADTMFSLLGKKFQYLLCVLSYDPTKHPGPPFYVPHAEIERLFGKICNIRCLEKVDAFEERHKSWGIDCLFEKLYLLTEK
UniProt P47897: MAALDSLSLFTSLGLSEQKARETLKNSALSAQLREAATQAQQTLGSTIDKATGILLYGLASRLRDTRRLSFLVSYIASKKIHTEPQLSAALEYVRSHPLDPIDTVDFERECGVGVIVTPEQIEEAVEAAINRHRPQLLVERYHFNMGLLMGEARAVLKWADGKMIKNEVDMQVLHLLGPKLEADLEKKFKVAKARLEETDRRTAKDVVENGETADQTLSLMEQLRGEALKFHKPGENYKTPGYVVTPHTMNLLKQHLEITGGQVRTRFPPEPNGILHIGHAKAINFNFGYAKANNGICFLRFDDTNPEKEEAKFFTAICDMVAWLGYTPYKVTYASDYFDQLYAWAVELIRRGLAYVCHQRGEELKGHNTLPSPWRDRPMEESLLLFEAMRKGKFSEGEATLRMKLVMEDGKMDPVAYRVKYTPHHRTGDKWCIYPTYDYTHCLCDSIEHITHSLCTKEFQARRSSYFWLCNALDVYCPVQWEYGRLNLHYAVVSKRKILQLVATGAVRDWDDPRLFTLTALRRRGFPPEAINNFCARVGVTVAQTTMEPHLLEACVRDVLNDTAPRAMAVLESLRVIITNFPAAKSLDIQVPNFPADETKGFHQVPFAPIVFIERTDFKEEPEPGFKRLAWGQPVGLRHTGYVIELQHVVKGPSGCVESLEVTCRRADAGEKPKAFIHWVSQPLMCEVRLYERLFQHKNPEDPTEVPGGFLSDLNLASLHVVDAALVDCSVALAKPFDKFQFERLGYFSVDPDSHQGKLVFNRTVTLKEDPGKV
UniProt P40337, whole entry, looked up: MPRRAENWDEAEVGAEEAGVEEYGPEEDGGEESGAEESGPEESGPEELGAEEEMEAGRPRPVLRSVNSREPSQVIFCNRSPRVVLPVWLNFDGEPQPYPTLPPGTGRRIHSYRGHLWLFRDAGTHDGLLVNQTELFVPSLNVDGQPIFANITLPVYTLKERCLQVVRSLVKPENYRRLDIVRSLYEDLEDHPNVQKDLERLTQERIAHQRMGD
UniProt P53041: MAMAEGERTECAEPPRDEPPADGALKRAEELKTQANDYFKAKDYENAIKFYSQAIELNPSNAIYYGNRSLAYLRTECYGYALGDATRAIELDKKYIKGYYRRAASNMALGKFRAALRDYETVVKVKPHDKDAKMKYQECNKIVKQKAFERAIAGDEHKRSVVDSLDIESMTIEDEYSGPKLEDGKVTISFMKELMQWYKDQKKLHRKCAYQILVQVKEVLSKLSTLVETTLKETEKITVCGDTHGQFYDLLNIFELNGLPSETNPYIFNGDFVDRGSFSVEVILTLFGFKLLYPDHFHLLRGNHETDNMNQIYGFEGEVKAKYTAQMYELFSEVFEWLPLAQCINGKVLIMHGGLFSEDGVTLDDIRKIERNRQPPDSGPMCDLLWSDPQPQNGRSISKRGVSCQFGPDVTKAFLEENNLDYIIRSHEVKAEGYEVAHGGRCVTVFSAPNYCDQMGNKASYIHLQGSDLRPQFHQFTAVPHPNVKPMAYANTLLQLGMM
UniProt P55081: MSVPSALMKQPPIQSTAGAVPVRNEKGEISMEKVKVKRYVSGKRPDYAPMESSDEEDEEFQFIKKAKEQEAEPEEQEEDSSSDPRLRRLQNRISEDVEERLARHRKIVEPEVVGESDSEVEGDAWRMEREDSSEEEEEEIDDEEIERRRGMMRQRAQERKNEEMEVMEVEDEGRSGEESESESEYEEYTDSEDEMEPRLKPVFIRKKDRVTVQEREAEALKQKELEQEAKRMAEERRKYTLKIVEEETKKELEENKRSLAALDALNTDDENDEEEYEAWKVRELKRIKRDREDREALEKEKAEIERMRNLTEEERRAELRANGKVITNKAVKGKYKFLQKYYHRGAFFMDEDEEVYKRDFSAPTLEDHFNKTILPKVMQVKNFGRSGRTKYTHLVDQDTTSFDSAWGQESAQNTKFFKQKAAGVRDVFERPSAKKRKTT

Compound: Nc1ncnc2c1ncn2[C@@H]1O[C@H](COP(=O)(O)OP(=O)(O)NP(=O)(O)O)[C@@H](O)[C@H]1O [adenylyl imidodiphosphate]
Experiment: NP40-soluble protein abundance relative to vehicle (solubility fold change) (ratio); higher = more soluble protein in presence of AMP-PNP
Details: concentration: 0.5mM
Outline: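 Each value is a fold change relative to the detergent-processed vehicle, calculated per replicate from vsn-normalised intensities. Jurkat crude lysate received eight concentrations (0.1 to 10 mM) for 10 min at room temperature and 3 min at 37 °C, then was solubilised in 0.8% NP40 with benzonase (60 min, 4 °C). The ultracentrifuged supernatant was TMT-labelled and run by LC-MS/MS in three independent experiments.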

Target	NP40-soluble protein abundance
LRPPRC (UniProt P42704)	0.937 ± 0.052
WAS (UniProt P42768)	0.987 ± 0.059
RBM34 (UniProt P42696)	1 ± 0.068
ALDH9A1 (UniProt P49189)	0.995 ± 0.034
EIF2B2 (UniProt P49770)	0.932 ± 0.058
UniProt P49750-3|P49750-4	1.03 ± 0.04
UniProt P41229 and related entries	0.987 ± 0.028
PIK3CG (UniProt P48736)	0.98 ± 0.062
NDUFA8 (UniProt P51970)	1.01 ± 0.037
UniProt P49959	0.976 ± 0.044
UniProt P54819 and related entries	1 ± 0.043
DRG2 (UniProt P55039)	0.999 ± 0.082
P42166 and related entries (UniProt P42167+P42166)	1.03 ± 0.029
RANGAP1 (UniProt P46060)	1.01 ± 0.017
UniProt P49841 and related entries	0.9938 ± 0.007
UniProt P41743	0.961 ± 0.025
PRCP (UniProt P42785)	1 ± 0.04
HNRNPF (UniProt P52597)	0.988 ± 0.03
UniProt P43155 and related entries	0.951 ± 0.073

Taken from the listing (2 entries):
Target	NP40-soluble protein abundance
EIF2B2 (UniProt P49770)	0.932 ± 0.058
UniProt P49750-3|P49750-4	1.03 ± 0.04

The results go on:

Target	NP40-soluble protein abundance
UniProt P40925 and related entries	0.99 ± 0.029
ACADSB (UniProt P45954)	1.01 ± 0.032
UniProt P50579 and related entries	1.02 ± 0.038
UniProt P52757 and related entries	1.05 ± 0.0063
RFX3 (UniProt P48380)	0.9885 ± 0.005
TPMT (UniProt P51580)	0.993 ± 0.069
UniProt P47897 and related entries	1.02 ± 0.094
UniProt P40337 and related entries	1 ± 0.044
UniProt P45880 and related entries	1.01 ± 0.035
NAMPT (UniProt P43490)	0.987 ± 0.053
PPP5C (UniProt P53041)	0.998 ± 0.025
UniProt P46783 and related entries	1.028 ± 0.0058
UniProt P46736 and related entries	0.993 ± 0.051
HADHB (UniProt P55084)	0.999 ± 0.026
MFAP1 (UniProt P55081)	1.03 ± 0.04
UniProt P49336 and related entries	1.02 ± 0.014
UniProt P55265 and related entries	1.05 ± 0.028
NUP153 (UniProt P49790)	1.01 ± 0.049
